Among all 320,000 compounds or so, about 22,000 (6.9%) were called active. This list was built around the results that the source calls inconclusive (neither active nor inactive); the mix of calls is not that of the screen. Calls come from the whole dose curve; as a rule, active = well fitted inhibition curve with a large enough effect; inconclusive = small, poorly fitted or top-dose-only effect, or another doubt; inactive = no such curve, though single readings can be large or run the other way. Potencies of inconclusive entries are doubtful fits and often do not repeat.
Test: Primary qHTS for delayed death inhibitors of the malarial parasite plastid, 96 hour incubation
Conditions: P. falciparum luciferase reporter growth; series mostly up to 28.7 µM
In short: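 Plates of compound plus infected erythrocytes (2% hematocrit, 0.05% parasitemia final) incubate 96 hours, 37 C, 5% CO2. Detection reagent added; reduced luminescence from the parasites' luciferase reporter flags inhibition.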
In the case of `COCCNC(=O)c1ccc(-c2csc(C)n2)cc1`, the Potency is reported as “inactive”.
With `CCOC(=O)c1ccc(NC(=S)N2CCN(C(=O)C3CCCO3)CC2)cc1` (stereo not drawn) the Potency was “inactive”.
For `CC(C)CN(CC(C)C)S(=O)(=O)N1CCC(C(=O)N2CCc3ccccc3C2)CC1`, the Potency was inconclusive: 4.15 µM [inhibitor, single point].
In the case of `CCOc1cc(/C=C2\C(=O)ON=C2c2ccccc2)ccc1OC`, the Potency is reported as inconclusive: 18.5 µM [inhibitor, single point].
For `O=C(/C=C/c1ccccc1)Nc1nnc(SCC(=O)c2ccc3ccccc3c2)s1`, the Potency was inconclusive: 18.5 µM [inhibitor, partial curve, poor fit].
For `CCn1c(C)c2c(C)nnc(C)c2c1C`, the Potency was inconclusive: 18.5 µM [inhibitor, single point].
For `COc1ccc(NC(=S)NC(=O)C2CCCCC2)cc1`, the Potency was “inactive”.
With `COCCn1c(-c2ccccc2Cl)nc2c(c(=O)c3ccccc3n2C)c1=O` the Potency was inconclusive: 10.4 µM [inhibitor, partial curve, poor fit].
For `CCOc1ccc(C(CC(=O)O)n2cnnn2)cc1` (stereo not drawn), the Potency was inconclusive: 18.5 µM [inhibitor, single point].
In the case of `COc1ccc(OC(=O)c2cccc(S(=O)(=O)N3CC(C)OC(C)C3)c2)cc1` (stereo not drawn), the Potency is reported as inconclusive: 9.28 µM [inhibitor, partial curve, poor fit].
In the case of `O=C(NCC(=O)N(c1cccc(F)c1)C(C(=O)NC1CCCC1)c1ccco1)c1ccco1` (stereo not drawn), the Potency is reported as “inactive”.
With `Cc1cc(NC(=O)CCC(=O)N(Cc2cccs2)C(C)(C)C(=O)NC2CCCCC2)no1` the Potency was inconclusive: 18.5 µM [inhibitor, partial curve, poor fit].
For `O=C(CCCn1c(=O)c2ccccc2n(Cc2cccc(F)c2)c1=O)NC1CCN(Cc2ccccc2)CC1`, the Potency was inconclusive: 0.165 µM [inhibitor, partial curve, poor fit].
For `COc1ccccc1CCNC(=O)C(=O)NCC1OCCN1S(=O)(=O)c1ccc([N+](=O)[O-])cc1` (stereo not drawn), the Potency was inconclusive: 9.28 µM [inhibitor, partial curve].
For `Cc1ccc2nsnc2c1NC(=O)COc1ccccc1F`, the Potency was inconclusive: 0.329 µM [inhibitor, partial curve, poor fit].
With `O=C(CCNS(=O)(=O)c1ccccc1)Nc1ccc(Cl)cc1C(=O)c1ccccc1` the Potency was inconclusive: 11.7 µM [inhibitor, single point].
With `Cc1cc(C)c2sc(N(CCCN(C)C)C(=O)c3ccc(Br)s3)nc2c1` the Potency was inconclusive: 18.5 µM [inhibitor, single point].
With `Cc1ccc(NC(=O)CCS(=O)(=O)c2ccccc2)cc1S(=O)(=O)N1CCOCC1` the Potency was inconclusive: 4.65 µM [inhibitor, partial curve, poor fit].
Potency is the fitted concentration of half-maximal effect.
